According to paper PMC8230603:

How the values were obtained:
[1] = target: Rad52-1-226 V95I (Saccharomyces cerevisiae) (UniProt P06778); assay: EMSA; settings: 5 mM MgCl2, still binds at 0.05 uM, 10 mM Tris-HCl pH 8, 5 mM MgCl2, 100 mM NaCl, 37 °C, 10 min, 0.27 µM Cy5-DNA (nt per Fig 6 legend), 8% native PAGE, recombinant protein, residues 1-226
[2] = target: Rad52-1-226 (Saccharomyces cerevisiae) (UniProt P06778); assay: EMSA; settings: 5 mM MgCl2, 10 mM Tris-HCl pH 8, 5 mM MgCl2, 100 mM NaCl, 37 °C, 10 min, 0.27 µM Cy5-DNA (nt per Fig 6 legend), 8% native PAGE, recombinant protein, residues 1-226
[3] = label: 5'-Cy5, single-stranded DNA

Row | Sequence | binding result ([1]; label: 5'-Cy5 on strand 1) | binding result ([2]; label: 5'-Cy5 on strand 1) | binding result [1, 3] | binding result [2, 3]
1 | TGGGTGAACCTGCAGGTGGGCAAAGATGTCCTAGCAATGTAATCGTCAAGCTTTATGCCGTT (double strand) [XV2 dsDNA] | binds more weakly | binds | – | –
2 | TGGGTGAACCTGCAGGTGGGCAAAGATGTCCTAGCAATGTAATCGTCAAGCTTTATGCCGTT [XV2 ssDNA] | – | – | binds more weakly | binds

For some of these results: A weaker result is weaker than the reference pair of the same experiment. For some of these results: Construct, isoform or probe ends are uncertain for at least one entry. For some of these results: At least one verdict rests on a figure or table, not on a statement of the authors.
